Results taken from US20150051171A1, “TETRAZOLINONE COMPOUNDS AND ITS USE AS PESTICIDES” (SUMITOMO CHEMICAL COMPANY, LIMITED, priority 2012, published 2015).
Some of these results come from one statement about several compounds together.

What was measured:
[1] = test system: powdery mildew fungi (Sphaerotheca fuliginea); assay: Cucumber powdery mildew control, foliar spray before inoculation (Test Examples 17-19); assay type: in vivo; conditions: cucumber (cv; Sagamihanjiro), observed 8 days after inoculation
[2] = test system: soybean rust fungi (phakopsora pachyrhizi); assay: Soybean rust control, foliar spray after inoculation (Test Example 21); assay type: in vivo; conditions: 200 ppm foliar spray 1 day after inoculation, soybean (cv; Kurosengoku), observed after 14 days
[3] = test system: soybean rust fungi (phakopsora pachyrhizi); assay: Soybean rust control, foliar spray before inoculation (Test Example 20); assay type: in vivo; conditions: 200 ppm foliar spray, soybean (cv: Kurosengoku), inoculated 2 days after spraying
[4] = test system: cotton aphid (Aphis gossypii); assay: Cotton aphid control on cucumber (Test Example 31); assay type: in vivo; conditions: 500 ppm, 20 mL spread on cucumber with 30 aphids, counted after 6 days
[5] = test system: barley scald fungi (Rhynchosporium secalis); assay: Barley scald / leaf blotch control, foliar spray before inoculation (Test Examples 22-23); assay type: in vivo; conditions: 200 ppm foliar spray, barley (cv; Mikamo Golden), inoculated 2 days after spraying
[6] = test system: grapes downy mildew fungi; assay: Grapes downy mildew control, foliar spray before inoculation (Test Example 24); conditions: 200 ppm foliar spray, grapes (Seeding of Chardonnay), inoculated after drying
[7] = test system: wheat leaf blotch fungi (Septoria tritici); assay: Wheat leaf blotch control on wheat, foliar spray before inoculation (Test Examples 13-15); assay type: in vivo; conditions: wheat (cv; Apogee), inoculated 4 days after spraying
[8] = test system: cucumber anthracnose fungi (Colletotrichum lagenarium); assay: Cucumber anthracnose control, foliar spray before inoculation (Test Examples 29-30); assay type: in vivo; conditions: cucumber (cv; Sagamihanjiro), inoculated 1 day after spraying
[9] = test system: barley net blotch fungi (Pyrenophora teres); assay: Barley net blotch control on barley, foliar spray before inoculation (Test Examples 8-10, Comparative Test Example); assay type: in vivo; conditions: 500 ppm foliar spray, barley (cv; Mikamo Golden), inoculated 2 days after spraying
[10] = test system: cucumber target spot fungi (Corynespora cassiicola); assay: Cucumber target spot control, foliar spray before inoculation (Test Examples 27-28); assay type: in vivo; conditions: cucumber (cv; Sagamihanjiro), inoculated 1 day after spraying
[11] = test system: kidney bean sclerotinia rot fungi (Sclerotinia sclerotiorum); assay: Kidney bean sclerotinia rot control, foliar spray before inoculation (Test Examples 11-12); conditions: 500 ppm foliar spray, kidney bean (cv; Nagauzurasaitou), observed 4 days after inoculation

In the case of `Cc1ccc(-n2ccc(OCc3c(C)cccc3-n3nnn(C)c3=O)n2)cc1` [Present compound 13, 1-(2-{[1-(4-methylphenyl)-1H-pyrazole-3-yl]oxymethyl}-3-methylphenyl)-4-methyl-1,4-dihydrotetrazole-5-one], the “lesion area compared to the lesion area in untreated plants” value (shortened to “lesion area compared to the lesion area”) ([1]; 200 ppm foliar spray) is reported as ≤ 30% and the “lesion area compared to the lesion area” value [2] is reported as ≤ 30%.

In the case of `Cc1cccc(-n2nnn(C)c2=O)c1COc1ccn(C(C)(C)C)n1` [Present compound 15, 1-(2-{[1-(1,1-dimethylethyl)-1H-pyrazole-3-yl]oxymethyl}-3-methylphenyl)-4-methyl-1,4-dihydrotetrazole-5-one], the “lesion area compared to the lesion area” value [3] is reported as ≤ 30% and the “lesion area compared to the lesion area” value [2] is reported as ≤ 30%.

`Cc1cccc(-n2nnn(C)c2=O)c1COc1cc[nH]n1` [Present compound 18] was tested, and the control value [4] was ≥ 90%.

For `Cn1nnn(-c2cccc(C3CC3)c2COc2ccn(-c3ccc(Cl)cc3)n2)c1=O` [Present compound 34, 1-(2-{[1-(4-chlorophenyl)-1H-pyrazole-3-yl]oxymethyl}-3-cyclopropylphenyl)-4-methyl-1,4-dihydrotetrazole-5-one], the “lesion area compared to the lesion area” value [5] was ≤ 30%, the “lesion area compared to the lesion area” value [6] was ≤ 30% and the “lesion area compared to the lesion area” value ([7]; 200 ppm foliar spray) was ≤ 30%. The “lesion area compared to the lesion area” value ([8]; 50 ppm foliar spray) was ≤ 30%.

`C=Cc1cccc(-n2nnn(C)c2=O)c1COc1ccn(-c2ccc(Cl)cc2)n1` [Present compound 39, 1-(2-{[1-(4-chlorophenyl)-1H-pyrazole-3-yl]oxymethyl}-3-ethenylphenyl)-4-methyl-1,4-dihydrotetrazole-5-one] was tested, and the “lesion area compared to the lesion area” value ([1]; 500 ppm foliar spray) was ≤ 30%, the “lesion area compared to the lesion area” value [9] was ≤ 30% and the control value [4] was ≥ 90%. For the same molecule, the “lesion area compared to the lesion area” value ([7]; 500 ppm foliar spray) was ≤ 30%.

In the case of `Cc1cccc(-n2nnn(C)c2=O)c1COc1ccn(-c2ccc(Br)cc2)n1` [Present compound 46, 1-(2-{[1-(4-bromophenyl)-1H-pyrazole-3-yl]oxymethyl}-3-methylphenyl)-4-methyl-1,4-dihydrotetrazole-5-one], the “lesion area compared to the lesion area” value [5] is reported as ≤ 30%, the “lesion area compared to the lesion area” value [3] is reported as ≤ 30% and the “lesion area compared to the lesion area” value ([1]; 500 ppm foliar spray) is reported as ≤ 30%. The “lesion area compared to the lesion area” value ([10]; 50 ppm foliar spray) was ≤ 30%, the “lesion area compared to the lesion area” value [11] was ≤ 30% and the “lesion area compared to the lesion area” value ([8]; 50 ppm foliar spray) was ≤ 30%.

For `Cn1nnn(-c2cccc(Cl)c2COc2ccn(-c3ccc(Br)cc3)n2)c1=O` [Present compound 47, 1-(2-{[1-(4-bromophenyl)-1H-pyrazole-3-yl]oxymethyl}-3-chlorophenyl)-4-methyl-1,4-dihydrotetrazole-5-one], the control value [4] was ≥ 90%.

With `COc1cc(Cl)ccc1-n1ccc(OCc2c(C)cccc2-n2nnn(C)c2=O)n1` [Present compound 96, 1-(2-{[1-(4-chloro-2-methoxyphenyl)-1H-pyrazole-3-yl]oxymethyl}-3-methylphenyl)-4-methyl-1,4-dihydrotetrazole-5-one] the “lesion area compared to the lesion area” value [5] was ≤ 30%, the “lesion area compared to the lesion area” value [3] was ≤ 30% and the “lesion area compared to the lesion area” value ([10]; 200 ppm foliar spray) was ≤ 30%. For the same molecule, the control value [4] was ≥ 90% and the “lesion area compared to the lesion area” value ([7]; 500 ppm foliar spray) was ≤ 30%.

With `COc1c(Cl)cccc1-n1ccc(OCc2c(C)cccc2-n2nnn(C)c2=O)n1` [Present compound 97, 1-(2-{[1-(3-chloro-2-methoxyphenyl)-1H-pyrazole-3-yl]oxymethyl}-3-methylphenyl)-4-methyl-1,4-dihydrotetrazole-5-one] the “lesion area compared to the lesion area” value ([1]; 500 ppm foliar spray) was ≤ 30%, the “lesion area compared to the lesion area” value [9] was ≤ 30% and the “lesion area compared to the lesion area” value ([10]; 200 ppm foliar spray) was ≤ 30%. For the same molecule, the “lesion area compared to the lesion area” value [11] was ≤ 30% and the “lesion area compared to the lesion area” value ([8]; 200 ppm foliar spray) was ≤ 30%.
